Results deposited as PubChem BioAssay AID1508597 (Cure First, 2020).
Shown is a random part of the about 2,100 reagents, under one of the conditions tested. 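Calls flag viability under 80% in either arm, not effects specific to rucaparib; the reference for percent is not stated.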 Some reagents were tested in more than one well and are listed for each. Not given: the 100% reference.

Purpose: 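Knock-downs altering ovarian cancer cell survival with or without PARP inhibitor rucaparib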 (primary screen)
System: human ovarian carcinoma lines grown from tumours: OCI-P5x (papillary serous) and OCI-C5x (clear cell)
Reagents: siRNA pool against human genes, 1.25 pmol siRNA per well
Duration: 72 h or 96 h, depending on the cell culture
Treatment: rucaparib 20 µM (about IC30) or vehicle, present until read-out
Rucaparib or vehicle: Vehicle
Cell line: OCI-P5x (serous)
Detection: 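Luminescent ATP-based viability assay read 72 or 96 h after transfection, depending on culture, given as normalised percent viability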
Reading the numbers: viability, normalised: higher = more viable cells remaining
Active means: 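a well counts as a hit if its normalised viability is under 80 percent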
Calls: active = viability under 80%; inactive = viability 80% or more

no.	target	technical replicate	viability, normalised (%)	call
1	RPA1	1	60	active
2	RPA1	1	49.9	active
3	RPA1	2	64.5	active
4	RPA1	2	50.1	active
5	RPA1	3	41.6	active
6	RPA1	3	49.1	active
7	BAP1	1	67.8	active
8	BAP1	1	69.1	active
9	BAP1	2	80	active
10	BAP1	2	76.2	active
11	BAP1	3	68.7	active
12	BAP1	3	65.4	active
13	NDEL1	1	53.2	active
14	NDEL1	2	61.5	active
15	NDEL1	3	68	active

Part of the list above, set out differently:
BAP1, technical replicate 2 — viability, normalised (%) = 80; call = active
BAP1, technical replicate 2 — viability, normalised (%) = 76.2; call = active
BAP1, technical replicate 3 — viability, normalised (%) = 68.7; call = active

The list goes on.
no.	target	technical replicate	viability, normalised (%)	call
16	PIWIL2	1	40.5	active
17	PIWIL2	2	59.1	active
18	PIWIL2	3	80	inactive
19	TOP1	1	70	active
20	TOP1	2	77.8	active
21	TOP1	3	52.8	active
22	PLCH1	1	74.5	active
23	PLCH1	2	81.4	inactive
24	PLCH1	3	59.9	active
